For the assay, the target named is 3XFLAG-tagged PRL-3, recombinant (human) (UniProt O75365). In words: co-IP.

Amino acid sequences for entries named in this document (tags omitted).
UniProt O75365, whole entry: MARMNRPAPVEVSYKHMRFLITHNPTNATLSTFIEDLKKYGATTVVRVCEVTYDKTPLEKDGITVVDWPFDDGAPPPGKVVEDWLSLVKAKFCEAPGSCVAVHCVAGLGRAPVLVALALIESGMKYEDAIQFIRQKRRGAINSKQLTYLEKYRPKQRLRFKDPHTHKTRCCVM

Results are given in words; binding and its absence hold for the method and conditions named. In cells and extracts the contact can be indirect. Binding calls can cover weak binding; strength is not graded here.

“CNNM3 CBS domain fused to a hemagglutinin (HA) tag (from UniProt Q8NE01) (domain or fragment)”: the binding result is “binds”.

For the origin of these results see doi:10.1101/2020.10.02.311787 (bioRxiv, 2020).
